Some of the results follow.

Chains of the proteins cited; added tags and fusions are not shown. Lines headed by an entry give the natural chain unless they say otherwise; changes in a name come on top.
UniProt Q3KQV9: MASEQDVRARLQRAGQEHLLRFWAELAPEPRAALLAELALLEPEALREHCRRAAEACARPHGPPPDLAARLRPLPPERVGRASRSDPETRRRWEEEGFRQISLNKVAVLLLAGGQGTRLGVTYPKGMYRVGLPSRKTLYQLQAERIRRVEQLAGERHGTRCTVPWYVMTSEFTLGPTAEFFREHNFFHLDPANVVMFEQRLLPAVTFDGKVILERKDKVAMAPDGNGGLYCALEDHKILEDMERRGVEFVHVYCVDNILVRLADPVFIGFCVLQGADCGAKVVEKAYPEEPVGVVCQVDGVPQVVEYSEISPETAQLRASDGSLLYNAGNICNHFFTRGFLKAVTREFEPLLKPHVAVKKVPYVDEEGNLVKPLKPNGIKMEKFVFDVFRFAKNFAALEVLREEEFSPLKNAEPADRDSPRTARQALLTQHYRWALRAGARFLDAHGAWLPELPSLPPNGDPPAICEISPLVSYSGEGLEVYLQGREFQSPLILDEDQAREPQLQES
UniProt Q9P2K2: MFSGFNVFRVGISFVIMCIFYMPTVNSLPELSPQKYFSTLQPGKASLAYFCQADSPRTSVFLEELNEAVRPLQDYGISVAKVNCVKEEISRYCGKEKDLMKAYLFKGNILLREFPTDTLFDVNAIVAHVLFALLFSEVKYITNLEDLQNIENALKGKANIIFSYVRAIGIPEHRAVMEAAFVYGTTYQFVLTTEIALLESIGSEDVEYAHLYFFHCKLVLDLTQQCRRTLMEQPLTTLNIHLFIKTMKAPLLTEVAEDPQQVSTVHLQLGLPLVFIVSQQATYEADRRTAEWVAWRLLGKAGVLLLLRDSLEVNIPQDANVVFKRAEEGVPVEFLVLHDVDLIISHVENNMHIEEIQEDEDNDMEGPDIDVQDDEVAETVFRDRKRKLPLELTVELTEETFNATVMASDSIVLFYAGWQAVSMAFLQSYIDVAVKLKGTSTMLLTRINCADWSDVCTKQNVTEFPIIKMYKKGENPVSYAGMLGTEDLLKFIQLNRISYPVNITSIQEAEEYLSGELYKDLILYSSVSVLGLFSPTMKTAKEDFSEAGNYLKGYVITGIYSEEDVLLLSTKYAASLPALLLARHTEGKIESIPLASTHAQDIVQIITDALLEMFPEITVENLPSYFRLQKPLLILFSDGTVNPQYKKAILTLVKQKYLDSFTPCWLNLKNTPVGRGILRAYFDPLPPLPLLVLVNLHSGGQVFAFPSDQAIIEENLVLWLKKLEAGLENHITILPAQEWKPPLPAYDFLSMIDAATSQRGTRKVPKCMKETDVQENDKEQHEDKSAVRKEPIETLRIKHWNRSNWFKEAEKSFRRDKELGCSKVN
UniProt Q9GZZ9, whole entry, looked up: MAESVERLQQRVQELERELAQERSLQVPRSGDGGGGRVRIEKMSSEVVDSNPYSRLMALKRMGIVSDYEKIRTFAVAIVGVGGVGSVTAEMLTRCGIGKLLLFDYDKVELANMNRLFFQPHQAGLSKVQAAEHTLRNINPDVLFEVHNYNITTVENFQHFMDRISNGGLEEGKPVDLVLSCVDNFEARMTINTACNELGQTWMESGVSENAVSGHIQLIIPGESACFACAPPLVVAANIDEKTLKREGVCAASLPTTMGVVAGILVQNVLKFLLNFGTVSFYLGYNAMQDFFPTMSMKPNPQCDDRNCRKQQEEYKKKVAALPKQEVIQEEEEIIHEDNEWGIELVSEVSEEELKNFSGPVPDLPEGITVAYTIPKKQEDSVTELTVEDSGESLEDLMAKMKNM
UniProt Q9H832: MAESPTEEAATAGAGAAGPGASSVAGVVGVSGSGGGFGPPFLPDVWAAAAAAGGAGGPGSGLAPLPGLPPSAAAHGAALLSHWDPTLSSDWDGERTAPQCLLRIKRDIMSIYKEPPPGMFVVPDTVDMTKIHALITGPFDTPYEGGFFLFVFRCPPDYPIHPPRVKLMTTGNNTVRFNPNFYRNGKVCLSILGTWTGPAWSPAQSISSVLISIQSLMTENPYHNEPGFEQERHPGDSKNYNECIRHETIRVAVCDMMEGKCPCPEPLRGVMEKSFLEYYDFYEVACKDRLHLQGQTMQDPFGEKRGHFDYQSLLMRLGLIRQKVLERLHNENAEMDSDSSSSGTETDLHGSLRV
UniProt Q6IPR3: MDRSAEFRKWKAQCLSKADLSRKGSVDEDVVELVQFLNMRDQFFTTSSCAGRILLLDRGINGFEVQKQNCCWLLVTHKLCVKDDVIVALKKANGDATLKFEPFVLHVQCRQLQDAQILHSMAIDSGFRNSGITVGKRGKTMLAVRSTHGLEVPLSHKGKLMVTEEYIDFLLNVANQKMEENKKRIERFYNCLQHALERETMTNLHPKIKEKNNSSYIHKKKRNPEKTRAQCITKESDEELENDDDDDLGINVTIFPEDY
UniProt P61077: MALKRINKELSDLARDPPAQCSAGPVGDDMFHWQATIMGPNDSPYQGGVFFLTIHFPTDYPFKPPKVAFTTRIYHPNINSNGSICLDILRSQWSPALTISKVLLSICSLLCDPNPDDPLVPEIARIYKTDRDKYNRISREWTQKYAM
UniProt Q6DKK2: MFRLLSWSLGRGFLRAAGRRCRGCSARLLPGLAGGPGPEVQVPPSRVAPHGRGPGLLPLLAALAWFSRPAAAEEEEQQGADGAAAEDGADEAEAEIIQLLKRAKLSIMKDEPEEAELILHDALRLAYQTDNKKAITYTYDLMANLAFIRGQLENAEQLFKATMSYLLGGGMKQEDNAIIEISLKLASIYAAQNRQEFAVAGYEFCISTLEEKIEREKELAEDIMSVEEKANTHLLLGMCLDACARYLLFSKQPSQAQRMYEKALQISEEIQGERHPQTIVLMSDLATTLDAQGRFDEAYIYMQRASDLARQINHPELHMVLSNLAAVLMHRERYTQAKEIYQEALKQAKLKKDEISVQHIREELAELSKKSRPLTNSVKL
UniProt P83876: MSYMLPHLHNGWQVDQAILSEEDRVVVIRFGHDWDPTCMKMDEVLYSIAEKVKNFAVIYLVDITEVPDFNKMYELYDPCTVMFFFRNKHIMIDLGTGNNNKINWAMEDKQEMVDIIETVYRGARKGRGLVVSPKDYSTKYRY
UniProt Q8NG11: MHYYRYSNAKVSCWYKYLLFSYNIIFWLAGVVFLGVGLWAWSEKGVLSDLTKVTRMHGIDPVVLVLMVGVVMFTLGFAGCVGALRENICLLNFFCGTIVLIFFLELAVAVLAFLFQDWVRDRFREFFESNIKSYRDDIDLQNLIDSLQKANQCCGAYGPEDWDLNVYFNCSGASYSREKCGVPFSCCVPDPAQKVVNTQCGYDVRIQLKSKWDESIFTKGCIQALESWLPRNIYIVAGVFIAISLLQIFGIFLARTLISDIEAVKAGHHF
UniProt Q6IBS0: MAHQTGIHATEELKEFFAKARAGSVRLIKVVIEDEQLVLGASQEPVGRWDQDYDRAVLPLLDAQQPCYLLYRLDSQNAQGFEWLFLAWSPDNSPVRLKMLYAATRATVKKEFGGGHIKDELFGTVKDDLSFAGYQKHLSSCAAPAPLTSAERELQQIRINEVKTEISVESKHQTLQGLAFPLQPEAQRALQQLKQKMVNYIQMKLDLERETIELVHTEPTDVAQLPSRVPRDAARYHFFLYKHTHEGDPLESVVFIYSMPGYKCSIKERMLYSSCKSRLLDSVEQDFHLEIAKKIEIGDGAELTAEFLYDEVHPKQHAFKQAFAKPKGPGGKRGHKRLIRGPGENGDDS
UniProt Q9BVA1, whole entry, looked up: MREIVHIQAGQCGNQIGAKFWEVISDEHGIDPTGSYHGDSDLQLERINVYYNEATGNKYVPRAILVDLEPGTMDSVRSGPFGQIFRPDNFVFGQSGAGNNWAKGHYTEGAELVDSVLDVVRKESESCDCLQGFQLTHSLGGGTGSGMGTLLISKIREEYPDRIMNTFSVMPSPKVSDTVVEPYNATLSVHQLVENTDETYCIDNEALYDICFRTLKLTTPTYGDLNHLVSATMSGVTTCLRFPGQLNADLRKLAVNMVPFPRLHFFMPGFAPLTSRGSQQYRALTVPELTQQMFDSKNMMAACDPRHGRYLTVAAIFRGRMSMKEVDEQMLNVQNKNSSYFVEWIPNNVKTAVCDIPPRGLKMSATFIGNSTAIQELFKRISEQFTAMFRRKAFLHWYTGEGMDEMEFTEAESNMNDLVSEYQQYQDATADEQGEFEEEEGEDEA
UniProt Q9NUQ3: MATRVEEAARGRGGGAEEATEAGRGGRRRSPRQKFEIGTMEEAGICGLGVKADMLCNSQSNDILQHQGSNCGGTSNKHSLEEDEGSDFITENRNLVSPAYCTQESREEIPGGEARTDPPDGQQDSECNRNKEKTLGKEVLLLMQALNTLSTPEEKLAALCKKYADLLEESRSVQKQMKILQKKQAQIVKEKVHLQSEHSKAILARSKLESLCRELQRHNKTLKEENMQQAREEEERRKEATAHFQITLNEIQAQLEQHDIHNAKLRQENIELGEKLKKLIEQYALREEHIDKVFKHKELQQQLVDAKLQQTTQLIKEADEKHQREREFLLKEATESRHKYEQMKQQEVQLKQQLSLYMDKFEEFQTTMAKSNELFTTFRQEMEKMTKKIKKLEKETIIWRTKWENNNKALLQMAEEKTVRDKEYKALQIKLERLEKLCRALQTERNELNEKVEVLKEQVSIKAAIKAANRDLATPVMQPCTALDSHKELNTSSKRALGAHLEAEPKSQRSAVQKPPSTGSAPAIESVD
UniProt Q86TV6: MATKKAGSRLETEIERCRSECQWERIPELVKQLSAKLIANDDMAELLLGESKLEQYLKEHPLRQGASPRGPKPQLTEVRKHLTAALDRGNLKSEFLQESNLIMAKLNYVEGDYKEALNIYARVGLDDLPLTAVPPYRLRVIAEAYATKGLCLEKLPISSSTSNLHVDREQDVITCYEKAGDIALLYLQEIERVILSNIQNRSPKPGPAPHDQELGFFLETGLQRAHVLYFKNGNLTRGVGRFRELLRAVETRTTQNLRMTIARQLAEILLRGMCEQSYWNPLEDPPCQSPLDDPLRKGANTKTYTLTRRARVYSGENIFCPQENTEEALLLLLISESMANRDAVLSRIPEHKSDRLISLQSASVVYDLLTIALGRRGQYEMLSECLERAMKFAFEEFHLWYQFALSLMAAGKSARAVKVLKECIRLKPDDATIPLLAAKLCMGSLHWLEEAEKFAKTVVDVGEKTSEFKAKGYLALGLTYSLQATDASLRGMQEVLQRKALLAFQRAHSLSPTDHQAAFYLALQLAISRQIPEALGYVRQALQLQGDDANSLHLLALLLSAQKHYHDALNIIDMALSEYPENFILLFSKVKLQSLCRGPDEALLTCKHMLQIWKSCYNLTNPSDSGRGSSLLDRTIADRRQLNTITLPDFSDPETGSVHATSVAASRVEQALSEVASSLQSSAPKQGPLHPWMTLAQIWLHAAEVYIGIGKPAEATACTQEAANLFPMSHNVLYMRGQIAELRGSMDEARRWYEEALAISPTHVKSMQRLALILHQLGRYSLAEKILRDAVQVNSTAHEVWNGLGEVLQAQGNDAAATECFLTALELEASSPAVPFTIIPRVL
UniProt Q9UJT0: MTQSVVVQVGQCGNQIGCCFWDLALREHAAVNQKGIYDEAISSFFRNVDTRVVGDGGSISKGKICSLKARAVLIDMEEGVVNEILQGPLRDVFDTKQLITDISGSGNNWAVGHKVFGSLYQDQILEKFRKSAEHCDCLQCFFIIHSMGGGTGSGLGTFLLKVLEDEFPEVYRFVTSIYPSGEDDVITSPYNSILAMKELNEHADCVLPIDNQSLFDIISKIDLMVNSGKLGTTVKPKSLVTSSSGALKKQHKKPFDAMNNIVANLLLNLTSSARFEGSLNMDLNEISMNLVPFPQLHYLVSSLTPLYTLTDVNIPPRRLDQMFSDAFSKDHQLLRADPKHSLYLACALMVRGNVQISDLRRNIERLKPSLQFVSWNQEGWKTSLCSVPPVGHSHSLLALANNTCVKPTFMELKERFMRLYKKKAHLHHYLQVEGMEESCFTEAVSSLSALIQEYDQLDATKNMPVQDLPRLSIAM
UniProt Q969M7: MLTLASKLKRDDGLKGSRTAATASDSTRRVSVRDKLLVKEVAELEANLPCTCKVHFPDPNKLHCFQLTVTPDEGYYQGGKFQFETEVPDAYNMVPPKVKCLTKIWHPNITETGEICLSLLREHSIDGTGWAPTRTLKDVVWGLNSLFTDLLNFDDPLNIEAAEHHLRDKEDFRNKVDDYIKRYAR
UniProt P68363, whole entry, looked up: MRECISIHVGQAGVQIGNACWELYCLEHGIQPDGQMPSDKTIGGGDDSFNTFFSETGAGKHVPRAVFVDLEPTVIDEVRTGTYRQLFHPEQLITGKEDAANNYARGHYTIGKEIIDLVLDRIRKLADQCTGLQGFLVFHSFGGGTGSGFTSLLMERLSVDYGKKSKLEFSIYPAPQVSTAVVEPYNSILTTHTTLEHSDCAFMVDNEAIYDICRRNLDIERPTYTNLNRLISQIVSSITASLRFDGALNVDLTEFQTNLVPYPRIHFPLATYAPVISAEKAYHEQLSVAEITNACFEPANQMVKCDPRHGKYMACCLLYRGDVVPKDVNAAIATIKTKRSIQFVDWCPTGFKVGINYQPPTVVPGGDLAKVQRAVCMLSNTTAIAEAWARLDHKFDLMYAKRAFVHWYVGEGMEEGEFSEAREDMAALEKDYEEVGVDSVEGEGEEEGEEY

Compound in the first assay: CNCc1ccc(-c2[nH]c3cc(F)cc4c3c2CCNC4=O)cc1 [rucaparib]
The experiment in a line: log2 fold change, soluble protein after heating vs DMSO (PISA); higher = thermal stabilisation; K562 cells, 10 uM, 30 min; active = over 0.2 and 3.5 SD of the protein, either way, in both replicates (recomputed). The gist of the method: (§1)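 K562 cells at 2×10^6 cells/mL were treated with 10 μM compound for 30 min. Aliquots were heated for 3 min across 48°C-58°C, pooled, and extracted in PBS with 0.5% NP-40 at 4°C; soluble protein was the supernatant after 21,000xg for 90 min. Soluble protein was quantified by TMTpro 16plex LC-MS/MS with channel sums equalised, and reported as log2 fold change in thermal stability against DMSO controls, with values from duplicates.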
As for TUBGCP2 isoform 4 (UniProt Q9BSJ2), the log2 fold change was inactive: 0.338.
For UBE2L3 isoform 3 (UniProt P68036), the log2 fold change is inactive: -0.008.
Still for that read-out and setting: the figure for UBE2M (UniProt P61081) is inactive: -0.041.
Still for that read-out and setting: the figure for U2SURP (UniProt O15042) is inactive: 0.104; for UAP1L1 (UniProt Q3KQV9) it is inactive: 0.087; for TUBA3C (UniProt P0DPH7) it is inactive: -0.053.
With TWF1 (UniProt Q12792), the log2 fold change was inactive: -0.002.
Same read-out and setting: the same measure for TXNDC16 (UniProt Q9P2K2): inactive: -0.099; for UBE2N (UniProt P61088): inactive: -0.043.
As for TSPAN3 (UniProt O60637), the log2 fold change was inactive: -0.001.
Same read-out and setting: the figure for UBA5 (UniProt Q9GZZ9) is inactive: -0.025; for TUBB4A (UniProt M0QYM7) it is inactive: -0.16; for UBE2Z (UniProt Q9H832) it is inactive: 0.009.
Same read-out and setting: the same measure for TTN isoform 12 (UniProt Q8WZ42): inactive: 0.061.
As for TUBB1 (UniProt Q9H4B7), the log2 fold change is inactive: -0.045.
For TSN (UniProt Q15631), the log2 fold change is inactive: -0.059.
Regarding TYW3 (UniProt Q6IPR3), the log2 fold change is inactive: 0.114.
Consider UBE2D3 isoform 3 (UniProt P61077), for which the log2 fold change was inactive: -0.015.
Still for that read-out and setting: the figure for UBE2K (UniProt P61086) is inactive: -0.071; for TTC19 (UniProt Q6DKK2) it is inactive: 0.027; for UAP1 (UniProt Q16222) it is inactive: -0.014.
The same measure, in the same setting: the figure for TUBB6 (UniProt Q9BUF5) is inactive: 0.03; for TXNL4A (UniProt P83876) it is inactive: -0.016; for TSR1 (UniProt Q2NL82) it is inactive: 0.117.
In the case of TUBB6 (UniProt K7ES63), the log2 fold change is inactive: -0.112.
The same measure, in the same setting: the same measure for TSPAN14 (UniProt Q8NG11): inactive: -0.052; for TWF2 (UniProt Q6IBS0): inactive: -0.055; for TUBB2B (UniProt Q9BVA1): inactive: 0.022.
With TXLNG (UniProt Q9NUQ3), the log2 fold change is inactive: -0.024.
Same read-out and setting: the same measure for TXNDC15 (UniProt Q96J42): inactive: -0.083; for TTPAL (UniProt Q9BTX7): inactive: -0.004.
As to TTC1 (UniProt Q99614), the log2 fold change was inactive: -0.006.
Consider TSTA3 (UniProt Q13630), for which the log2 fold change is inactive: -0.057.
The same measure, in the same setting: the figure for TTC7B isoform 2 (UniProt Q86TV6) is inactive: 0.131; for TUBE1 (UniProt Q9UJT0) it is inactive: 0.039.
For the target UBE2F isoform 2 (UniProt Q969M7), the log2 fold change was inactive: -0.027.
Turning to UBE2A (UniProt P49459), the log2 fold change is inactive: -0.033.
Take TTC27 (UniProt Q6P3X3): the log2 fold change was inactive: 0.303.
Same read-out and setting: the same measure for TTC13 (UniProt Q8NBP0): inactive: 0.095; for TUBA1B (UniProt P68363): inactive: -0.07.

Compound in the next assay: CNc1nc(-c2ccc3c(N)n[nH]c3c2)cc(N2C[C@@H](C(=O)NC3CCCCC3)CC[C@H]2C)n1
Described as above. The gist of the method:
as §1
For TUBGCP2 isoform 4 (UniProt Q9BSJ2), the log2 fold change was inactive: 0.075.
Same read-out and setting: the same measure for UBE2L3 isoform 3 (UniProt P68036): inactive: -0.025; for UBE2M (UniProt P61081): inactive: -0.004.
As for U2SURP (UniProt O15042), the log2 fold change was inactive: -0.031.
The same measure, in the same setting: the figure for UAP1L1 (UniProt Q3KQV9) is inactive: 0.018; for TUBA3C (UniProt P0DPH7) it is inactive: 0.014; for TWF1 (UniProt Q12792) it is inactive: 0.013.
Still for that read-out and setting: the figure for TXNDC16 (UniProt Q9P2K2) is inactive: 0.009; for UBE2N (UniProt P61088) it is inactive: 0.004; for TSPAN3 (UniProt O60637) it is inactive: -0.004.
On the same count and under the same terms, the same measure for UBA5 (UniProt Q9GZZ9): inactive: -0.038; for TUBB4A (UniProt M0QYM7): inactive: -0.065.
For UBE2Z (UniProt Q9H832), the log2 fold change was inactive: -0.052.
In the case of TTN isoform 12 (UniProt Q8WZ42), the log2 fold change is inactive: -0.091.
In the case of TUBB1 (UniProt Q9H4B7), the log2 fold change was inactive: 0.047.
As for TSN (UniProt Q15631), the log2 fold change is inactive: 0.031.
Same read-out and setting: the same measure for TYW3 (UniProt Q6IPR3): inactive: -0.014.
With UBE2D3 isoform 3 (UniProt P61077), the log2 fold change was inactive: 0.045.
Same read-out and setting: the figure for UBE2K (UniProt P61086) is inactive: -0.022; for TTC19 (UniProt Q6DKK2) it is inactive: 0.006; for UAP1 (UniProt Q16222) it is inactive: -0.018.
With TUBB6 (UniProt Q9BUF5), the log2 fold change was inactive: 0.001.
As to TXNL4A (UniProt P83876), the log2 fold change was inactive: -0.039.
Turning to TSR1 (UniProt Q2NL82), the log2 fold change was inactive: 0.245.
The same measure, in the same setting: the figure for TUBB6 (UniProt K7ES63) is inactive: 0.044; for TSPAN14 (UniProt Q8NG11) it is inactive: -0.014.
On the same count and under the same terms, the same measure for TWF2 (UniProt Q6IBS0): inactive: 0.006.
In the case of TUBB2B (UniProt Q9BVA1), the log2 fold change was inactive: 0.087.
Same read-out and setting: the figure for TXLNG (UniProt Q9NUQ3) is inactive: -0.028; for TXNDC15 (UniProt Q96J42) it is inactive: 0.287.
The same measure, in the same setting: the figure for TTPAL (UniProt Q9BTX7) is inactive: 0.058; for TTC1 (UniProt Q99614) it is inactive: -0.044.
The same measure, in the same setting: the same measure for TSTA3 (UniProt Q13630): inactive: -0.029.
Take TTC7B isoform 2 (UniProt Q86TV6): the log2 fold change is inactive: -0.056.
For the target TUBE1 (UniProt Q9UJT0), the log2 fold change is inactive: -0.019.
Same read-out and setting: the figure for UBE2F isoform 2 (UniProt Q969M7) is inactive: -0.051.
With UBE2A (UniProt P49459), the log2 fold change was inactive: 0.028.
The same measure, in the same setting: the figure for TTC27 (UniProt Q6P3X3) is inactive: 0.095.
TTC13 (UniProt Q8NBP0): the log2 fold change was inactive: 0.042.
On the same count and under the same terms, the figure for TUBA1B (UniProt P68363) is inactive: -0.003.
